Results taken from patent publication US20230080534A1, “SEMG2 ANTIBODY AND USE THEREOF” (SHANGHAI BIOTROY BIOTECHNIQUE CO., LTD., priority 2020, published 2023).
These are yes or no findings as the source states them, for the method shown. For some assays here: In cells and extracts the contact can be indirect. Some entries that bind do so weakly or less than the wild type. For some assays here: Where a sequence is shown, tags or fusion partners need not be part of it. One block for each binder: values may come before it.

Chains of the proteins cited; added tags and fusions are not shown. Residues count along the entry.
UniProt P41272, residues 24-250: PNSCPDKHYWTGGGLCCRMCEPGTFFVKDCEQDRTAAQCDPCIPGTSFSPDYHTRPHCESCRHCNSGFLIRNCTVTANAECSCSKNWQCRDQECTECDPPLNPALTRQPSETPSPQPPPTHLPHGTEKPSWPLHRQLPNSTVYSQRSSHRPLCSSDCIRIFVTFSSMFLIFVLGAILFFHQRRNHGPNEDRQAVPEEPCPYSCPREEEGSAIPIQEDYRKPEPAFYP

Key:
[1] = target: human CD27 (HA-tagged, expressed in HEK293 cells) (human) (UniProt P26842); assay: co-immunoprecipitation (FIG. 4, left panel)
[2] = target: human CD27 (HA-tagged, expressed in HEK293 cells) (human) (UniProt P26842); assay: co-immunoprecipitation (FIG. 3)
[3] = target: mouse CD27 (expressed in HEK293 cells) (mouse) (UniProt P41272); assay: co-immunoprecipitation, HEK293 co-transfection
[4] = target: human CD27 (HA-tagged, expressed in HEK293 cells) (human) (UniProt P26842); assay: co-immunoprecipitation, HEK293 co-transfection
[5] = target: mouse CD27 (expressed in HEK293 cells) (mouse) (UniProt P41272); assay: co-immunoprecipitation (FIG. 4, right panel)
[6] = target: mouse CD27 (expressed in HEK293 cells) (mouse) (UniProt P41272); assay: co-immunoprecipitation (FIG. 1, lower panel)
[7] = target: human CD27 (HA-tagged, expressed in HEK293 cells) (human) (UniProt P26842); assay: co-immunoprecipitation (FIG. 1, upper panel)
[8] = target: mouse CD27 (expressed in HEK293 cells) (mouse) (UniProt P41272); assay: co-immunoprecipitation with Flag antibody, HEK293 co-transfection
[9] = target: human CD27 (HA-tagged, expressed in HEK293 cells) (human) (UniProt P26842); assay: as above
[10] = target: T1, CD27 protein (ELISA, form not stated) (UniProt P26842); assay: ELISA, HEK293-expressed full-length SEMG2
T1 sequence (looked up): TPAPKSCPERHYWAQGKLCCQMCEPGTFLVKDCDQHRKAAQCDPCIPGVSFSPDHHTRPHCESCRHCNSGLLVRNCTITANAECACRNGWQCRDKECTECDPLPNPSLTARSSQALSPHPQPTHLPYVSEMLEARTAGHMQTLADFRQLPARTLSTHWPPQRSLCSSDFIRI

[11] = target: human SEMG2 full-length protein (human) (UniProt Q02383); assay: ELISA, SEMG2 in microplate, CD27 titrated (FIG. 2B)

Binder: FQIEKLVEGKSQIQTPNPNQDQWSGQNAKGKSGQSADSKQDLLSH (peptide, not shown: large carriers) [SEMG2-P5 fused with GFP]
binding [1]: binds
binding [2]: binds
binding [3]: binds
binding [4]: binds
binding [5]: binds

B2: human SEMG2 full-length protein (ligand)
chain: QKGGSKGQLPSGSSQFPHGQKGQHYFGQKDQQHTKSKGSFSIQHTYHVDINDHDWTRKSQQYDLNALHKATKSKQHLGGSQQLLNYKQEGRDHDKSKGHFHMIVIHHKGGQAHHGTQNPSQDQGNSPSGKGLSSQCSNTEKRLWVHGLSKEQASASGAQKGRTQGGSQSSYVLQTEELVVNKQQRETKNSHQNKGHYQNVVDVREEHSSKLQTSLHPAHQDRLQHGPKDIFTTQDELLVYNKNQHQTKNLSQDQEHGRKAHKISYPSSRTEERQLHHGEKSVQKDVSKGSISIQTEEKIHGKSQNQVTIHSQDQEHGHKENKISYQSSSTEERHLNCGEKGIQKGVSKGSISIQTEEQIHGKSQNQVRIPSQAQEYGHKENKISYQSSSTEERRLNSGEKDVQKGVSKGSISIQTEEKIHGKSQNQVTIPSQDQEHGHKENKMSYQSSSTEERRLNYGGKSTQKDVSQSSISFQIEKLVEGKSQIQTPNPNQDQWSGQNAKGKSGQSADSKQDLLSHEQKGRYKQESSESHNIVITEHEVAQDDHLTQQYNEDRNPIST
binding [10]: binds

Second part, the binder after the results:

binding [6]: binds
binding [7]: binds
binding [8]: binds
binding [9]: binds
B1: Flag-SEMG2 expressed in HEK293 cells (pcDNA3-Flag-SEMG2) (ligand, not shown: small tags and cut ends)
chain: B2 chain

binding [11]: binds
B3: CD27 protein (ELISA, form not stated) (receptor, UniProt P26842 21-192, looked up)
chain: T1 sequence (looked up)
